Reference: PubChem BioAssay AID504774 (Drosophila RNAi Screening Center, 2011)

Aim: 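Knock-downs that shift viability of MMS-exposed cells relative to untreated ones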 (primary screen)
System: Drosophila Kc167 cells
Reagents: long dsRNA against Drosophila genes, about 0.25 µg dsRNA per well
Timing: about 6 days: 3 days knock-down, then 3 days with or without MMS
Treatment: methyl methanesulphonate 0.004% (w/v) for 3 days after knock-down
Detection: 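Viability in wells given MMS, read as ATP luminescence, normalised by quantiles plate by plate and averaged across replicates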
Direction: mean viability with MMS and viability with MMS: higher = more surviving cells after MMS
The screen tested about 23,000 reagents; below is an unselected part of those with a known target gene and a result. 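Values are quantile-normalised luminescence on an arbitrary scale; higher means more cells surviving MMS.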 A plus sign joins genes that one reagent is predicted to hit.

The opening 7 records, ahead of the listing:
| gene | dsRNA | mean viability with MMS | viability with MMS, replicate 1 | viability with MMS, replicate 2 |
| --- | --- | --- | --- | --- |
| CG40053 (retired record) | DRSC20833 | 2.33e6 | 4.02e6 | 4.05e6 |
| mtrm (matrimony) | DRSC10322 | 3.26e6 | 3.64e6 | 3.82e6 |
| mtrm (matrimony) | DRSC23076 | 3.48e6 | 4.02e6 | 3.91e6 |
| CAH4 (Carbonic anhydrase 4) | DRSC22433 | 3.61e6 | 4.03e6 | 4.11e6 |
| DNAlig3 (DNA ligase 3) | DRSC15201 | 3.55e6 | 4.06e6 | 4.00e6 |
| CG33169 | DRSC11853 | 3.72e6 | 4.14e6 | 4.19e6 |
| CG13622 | DRSC14624 | 3.48e6 | 3.90e6 | 3.97e6 |

The listing, repeating the preview:
| gene | dsRNA | mean viability with MMS | viability with MMS, replicate 1 | viability with MMS, replicate 2 |
| --- | --- | --- | --- | --- |
| CG40053 (retired record) | DRSC20833 | 2.33e6 | 4.02e6 | 4.05e6 |
| mtrm (matrimony) | DRSC10322 | 3.26e6 | 3.64e6 | 3.82e6 |
| mtrm (matrimony) | DRSC23076 | 3.48e6 | 4.02e6 | 3.91e6 |
| CAH4 (Carbonic anhydrase 4) | DRSC22433 | 3.61e6 | 4.03e6 | 4.11e6 |
| DNAlig3 (DNA ligase 3) | DRSC15201 | 3.55e6 | 4.06e6 | 4.00e6 |
| CG33169 | DRSC11853 | 3.72e6 | 4.14e6 | 4.19e6 |
| CG13622 | DRSC14624 | 3.48e6 | 3.90e6 | 3.97e6 |
| Muc30E (Mucin 30E) | DRSC01101 | 3.67e6 | 4.12e6 | 4.17e6 |
| CG4927 | DRSC06903 | 3.57e6 | 4.11e6 | 3.99e6 |
| SkpB (SKP1-related B) | DRSC07683 | 3.57e6 | 4.00e6 | 4.14e6 |
| Cad88C (Cadherin 88C) | DRSC15486 | 3.47e6 | 4.08e6 | 3.77e6 |
| CG8281 | DRSC10976 | 3.52e6 | 3.95e6 | 4.05e6 |
| Pi3K59F (Phosphatidylinositol 3-kinase 59F) | DRSC04640 | 3.67e6 | 4.22e6 | 4.14e6 |
| APC7 (Anaphase Promoting Complex subunit 7) | DRSC17937 | 3.50e6 | 4.06e6 | 4.21e6 |
| CG4270 | DRSC00648 | 3.45e6 | 3.93e6 | 3.87e6 |
| CG11808 | DRSC06088 | 3.68e6 | 4.16e6 | 4.19e6 |
| fest (wurstfest) | DRSC07349 | 3.43e6 | 3.93e6 | 3.82e6 |
| AstA-R2 (Allatostatin A receptor 2) | DRSC14171 | 3.59e6 | 4.12e6 | 4.02e6 |
| l(2)k01209 (lethal (2) k01209) | DRSC06889 | 3.66e6 | 4.13e6 | 4.13e6 |
| Gale (UDP-galactose 4'-epimerase) | DRSC08234 | 3.36e6 | 3.83e6 | 3.81e6 |
| CycA (Cyclin A) | DRSC09132 | 3.50e6 | 3.97e6 | 3.97e6 |
| CycA (Cyclin A) | DRSC11123 | 3.45e6 | 3.90e6 | 3.93e6 |
| CG33278 | DRSC10336 | 3.47e6 | 3.90e6 | 3.97e6 |
| sff (sugar-free frosting) | DRSC10590 | 3.54e6 | 4.06e6 | 3.95e6 |
| CG9410 + CG15908 | DRSC04976 | 3.30e6 | 3.71e6 | 3.64e6 |
| CG9410 + CG15908 | DRSC05001 | 3.49e6 | 4.07e6 | 3.82e6 |
| CG42354 + CG42353 | DRSC20172 | 3.23e6 | 3.59e6 | 3.54e6 |
| CG13048 | DRSC09929 | 3.56e6 | 3.94e6 | 4.14e6 |
| CG7988 | DRSC16358 | 3.52e6 | 3.99e6 | 4.00e6 |
| CG31347 | DRSC21582 | 3.35e6 | 3.88e6 | 3.82e6 |
| ATPsynC (ATP synthase, subunit C) | DRSC15236 | 3.43e6 | 3.82e6 | 3.96e6 |
| Rab9Fb (Rab at 9Fb) | DRSC19854 | 3.87e6 | 4.29e6 | 4.40e6 |
| Cdk1 (Cyclin-dependent kinase 1) | DRSC03504 | 2.87e6 | 3.07e6 | 3.38e6 |
| CG14113 | DRSC10116 | 3.59e6 | 3.94e6 | 4.18e6 |
| Cpr62Bc (Cuticular protein 62Bc) | DRSC08545 | 3.56e6 | 4.02e6 | 4.03e6 |
| ttm3 (tiny tim 3) | DRSC03736 | 3.55e6 | 3.98e6 | 4.07e6 |
| CG10734 | DRSC05998 | 3.60e6 | 3.91e6 | 4.24e6 |
| jeb (jelly belly) | DRSC06305 | 3.44e6 | 3.87e6 | 3.86e6 |
| jeb (jelly belly) | DRSC06307 | 3.65e6 | 4.26e6 | 4.09e6 |
| CG34345 | DRSC02126 | 3.59e6 | 4.08e6 | 4.05e6 |
| Alr (Augmenter of liver regeneration) | DRSC19469 | 3.46e6 | 4.01e6 | 3.86e6 |
| CG33796 | DRSC09417 | 3.49e6 | 4.02e6 | 3.91e6 |
| CG6550 | DRSC07001 | 3.71e6 | 4.29e6 | 4.10e6 |
| CG31606 | DRSC01012 | 3.44e6 | 4.00e6 | 3.79e6 |
| CG14507 | DRSC14859 | 3.46e6 | 3.90e6 | 3.92e6 |
| CG17343 | DRSC02606 | 3.78e6 | 4.28e6 | 4.21e6 |
| CG17343 | DRSC22807 | 3.41e6 | 3.94e6 | 3.88e6 |
| lectin-21Cb | DRSC00355 | 3.52e6 | 3.98e6 | 4.00e6 |
| CG3841 | DRSC02730 | 3.62e6 | 4.11e6 | 4.10e6 |
| Erk7 (Extracellularly regulated kinase 7) | DRSC18127 | 3.64e6 | 4.10e6 | 4.11e6 |
| Erk7 (Extracellularly regulated kinase 7) | DRSC18227 | 3.67e6 | 4.19e6 | 4.10e6 |
| Erk7 (Extracellularly regulated kinase 7) | DRSC21895 | 3.50e6 | 4.03e6 | 3.92e6 |
| zen (zerknullt) | DRSC12632 | 3.65e6 | 4.21e6 | 4.06e6 |
| CG4598 | DRSC02763 | 3.46e6 | 3.90e6 | 3.94e6 |
| CG33791 + CG12105 + CG18170 | DRSC08387 | 3.69e6 | 4.15e6 | 4.22e6 |
| Eato (Engulfment ABC Transporter in the ovary) | DRSC01891 | 3.68e6 | 4.19e6 | 4.22e6 |
| Eato (Engulfment ABC Transporter in the ovary) | DRSC03061 | 3.54e6 | 3.97e6 | 4.06e6 |
| Vps26 (Vacuolar protein sorting 26) | DRSC18555 | 3.51e6 | 3.99e6 | 3.97e6 |
| CG6659 | DRSC20003 | 3.64e6 | 4.24e6 | 4.05e6 |
| CG11635 + spaw | DRSC06075 | 3.55e6 | 3.94e6 | 4.09e6 |
| mars | DRSC06656 | 3.62e6 | 4.16e6 | 4.04e6 |
| sls (sallimus) | DRSC08528 | 3.57e6 | 4.09e6 | 3.99e6 |
| sls (sallimus) | DRSC08540 | 3.58e6 | 3.97e6 | 4.12e6 |
| sls (sallimus) | DRSC08670 | 3.59e6 | 4.15e6 | 3.96e6 |
| CG17739 | DRSC06689 | 3.54e6 | 3.97e6 | 4.05e6 |
| CG6184 | DRSC15986 | 3.43e6 | 3.99e6 | 3.83e6 |
| veg (retired record) | DRSC07714 | 3.65e6 | 4.09e6 | 4.14e6 |
| CG42362 + CG42363 | DRSC04265 | 3.43e6 | 3.80e6 | 3.85e6 |
| kat80 (katanin 80) | DRSC20344 | 3.49e6 | 4.01e6 | 3.89e6 |
| kat80 (katanin 80) | DRSC20345 | 3.51e6 | 4.01e6 | 3.96e6 |
| Tsen34 + Trl | DRSC10014 | 3.52e6 | 4.03e6 | 3.94e6 |
| CG42304 + Snup | DRSC08276 | 3.31e6 | 3.74e6 | 3.83e6 |
| CG42304 + Snup | DRSC08277 | 3.33e6 | 3.79e6 | 3.82e6 |
| CG42304 + Snup | DRSC22781 | 3.14e6 | 3.79e6 | 3.74e6 |
| bs (blistered) | DRSC04676 | 3.67e6 | 3.46e6 | 3.46e6 |
| bs (blistered) | DRSC23068 | 2.57e6 | 2.90e6 | 2.72e6 |
| Or46a (Odorant receptor 46a) | DRSC07489 | 3.64e6 | 4.06e6 | 4.12e6 |
| Or46a (Odorant receptor 46a) | DRSC07490 | 3.57e6 | 4.07e6 | 4.00e6 |
| Or46a (Odorant receptor 46a) | DRSC21590 | 3.65e6 | 4.10e6 | 4.15e6 |
| Desat2 (Desaturase 2) | DRSC15919 | 3.62e6 | 4.06e6 | 4.09e6 |
| ed (echinoid) | DRSC00350 | 3.62e6 | 4.04e6 | 4.19e6 |
| ed (echinoid) | DRSC00438 | 3.46e6 | 3.88e6 | 3.97e6 |
| ed (echinoid) | DRSC00439 | 3.47e6 | 3.82e6 | 4.05e6 |
| ed (echinoid) | DRSC00478 | 3.50e6 | 3.91e6 | 4.04e6 |
| CG11836 | DRSC14396 | 3.46e6 | 4.06e6 | 3.78e6 |
| CG17751 | DRSC15261 | 3.54e6 | 3.84e6 | 4.19e6 |
| CG17751 | DRSC22837 | 3.40e6 | 4.00e6 | 3.80e6 |
